From the supplement of paper PMC12823440, “Inhibitors supercharge kinase turnover through native proteolytic circuits” (Nature, 2025)
Structures can show the parent of a compound that is named as a salt. The list shows a part of the results. Hit calls seldom repeat between salt and free forms of one compound.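 Kinases were expressed as nanoluciferase fusions in K562 cells and luminescence was read every 4 h between 2 and 18 h as percent of control, DMSO set to 100% and a positive control to 0%. A time point counts as decreased when the signal drops significantly (2 sigma). The hit call is the authors' own, does not follow from the count of time points alone, and its rule is not shown.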

Amino acid sequences for entries named in this document (tags omitted). A change or cut given only in a name is not applied to a line headed by its entry.
UniProt P48729: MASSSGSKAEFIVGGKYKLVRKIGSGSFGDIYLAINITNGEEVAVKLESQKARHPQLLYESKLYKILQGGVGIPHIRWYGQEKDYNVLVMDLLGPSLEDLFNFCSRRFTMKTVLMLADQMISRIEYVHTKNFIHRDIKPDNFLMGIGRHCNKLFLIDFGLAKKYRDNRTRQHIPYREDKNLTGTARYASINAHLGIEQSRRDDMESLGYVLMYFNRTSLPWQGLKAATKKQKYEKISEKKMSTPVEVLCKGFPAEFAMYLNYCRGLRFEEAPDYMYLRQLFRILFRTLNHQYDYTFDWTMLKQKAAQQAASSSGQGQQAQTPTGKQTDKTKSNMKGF
UniProt P48730: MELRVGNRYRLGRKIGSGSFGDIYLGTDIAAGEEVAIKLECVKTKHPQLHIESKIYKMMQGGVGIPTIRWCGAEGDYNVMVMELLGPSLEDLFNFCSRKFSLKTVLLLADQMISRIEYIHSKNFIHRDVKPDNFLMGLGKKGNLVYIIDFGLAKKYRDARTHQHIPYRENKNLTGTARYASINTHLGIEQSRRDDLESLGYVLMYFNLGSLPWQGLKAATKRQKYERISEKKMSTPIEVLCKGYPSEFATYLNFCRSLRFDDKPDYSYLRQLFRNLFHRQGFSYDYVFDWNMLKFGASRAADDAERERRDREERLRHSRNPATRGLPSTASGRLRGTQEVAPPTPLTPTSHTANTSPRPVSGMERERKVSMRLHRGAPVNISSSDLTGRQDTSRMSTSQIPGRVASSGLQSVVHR
UniProt Q08345: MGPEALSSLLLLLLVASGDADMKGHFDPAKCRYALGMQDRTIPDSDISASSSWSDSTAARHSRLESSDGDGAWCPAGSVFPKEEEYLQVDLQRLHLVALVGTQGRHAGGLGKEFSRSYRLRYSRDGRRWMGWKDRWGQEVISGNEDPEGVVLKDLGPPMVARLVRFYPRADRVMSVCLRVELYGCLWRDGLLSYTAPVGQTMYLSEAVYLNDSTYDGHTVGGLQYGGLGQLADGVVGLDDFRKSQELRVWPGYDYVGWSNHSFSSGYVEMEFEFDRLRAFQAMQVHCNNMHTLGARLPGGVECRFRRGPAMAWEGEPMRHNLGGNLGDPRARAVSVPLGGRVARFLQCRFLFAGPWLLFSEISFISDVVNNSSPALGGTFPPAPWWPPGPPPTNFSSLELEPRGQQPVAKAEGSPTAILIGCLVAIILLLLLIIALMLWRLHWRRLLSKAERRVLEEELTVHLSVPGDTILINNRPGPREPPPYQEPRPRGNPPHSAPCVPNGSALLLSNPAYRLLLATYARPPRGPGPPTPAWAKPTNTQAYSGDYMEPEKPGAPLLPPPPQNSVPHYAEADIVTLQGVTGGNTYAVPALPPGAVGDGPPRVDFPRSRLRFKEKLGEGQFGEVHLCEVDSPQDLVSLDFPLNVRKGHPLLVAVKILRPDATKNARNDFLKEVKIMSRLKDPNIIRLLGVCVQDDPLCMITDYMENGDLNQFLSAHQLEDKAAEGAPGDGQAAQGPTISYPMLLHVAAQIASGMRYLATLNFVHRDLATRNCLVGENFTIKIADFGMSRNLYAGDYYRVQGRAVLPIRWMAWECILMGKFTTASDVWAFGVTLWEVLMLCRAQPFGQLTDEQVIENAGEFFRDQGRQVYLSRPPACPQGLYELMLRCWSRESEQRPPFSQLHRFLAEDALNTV
UniProt Q9Y463, whole entry, looked up: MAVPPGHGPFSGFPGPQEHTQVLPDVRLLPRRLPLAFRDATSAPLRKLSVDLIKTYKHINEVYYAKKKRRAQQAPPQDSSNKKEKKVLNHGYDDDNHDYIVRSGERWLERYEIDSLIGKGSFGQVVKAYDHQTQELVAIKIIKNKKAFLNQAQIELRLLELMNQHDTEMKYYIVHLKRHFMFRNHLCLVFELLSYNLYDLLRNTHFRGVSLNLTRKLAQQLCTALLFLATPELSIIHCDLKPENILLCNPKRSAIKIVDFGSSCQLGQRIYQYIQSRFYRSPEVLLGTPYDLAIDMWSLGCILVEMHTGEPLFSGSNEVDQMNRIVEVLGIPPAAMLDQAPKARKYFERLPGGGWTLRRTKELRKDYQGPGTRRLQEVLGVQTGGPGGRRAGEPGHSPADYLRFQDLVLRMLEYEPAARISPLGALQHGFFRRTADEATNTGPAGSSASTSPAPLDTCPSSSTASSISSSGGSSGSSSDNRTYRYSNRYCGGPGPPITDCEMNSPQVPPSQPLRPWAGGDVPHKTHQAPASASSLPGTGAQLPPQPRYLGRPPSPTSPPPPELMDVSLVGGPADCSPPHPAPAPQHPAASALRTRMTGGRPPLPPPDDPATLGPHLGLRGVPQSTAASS
UniProt Q92630: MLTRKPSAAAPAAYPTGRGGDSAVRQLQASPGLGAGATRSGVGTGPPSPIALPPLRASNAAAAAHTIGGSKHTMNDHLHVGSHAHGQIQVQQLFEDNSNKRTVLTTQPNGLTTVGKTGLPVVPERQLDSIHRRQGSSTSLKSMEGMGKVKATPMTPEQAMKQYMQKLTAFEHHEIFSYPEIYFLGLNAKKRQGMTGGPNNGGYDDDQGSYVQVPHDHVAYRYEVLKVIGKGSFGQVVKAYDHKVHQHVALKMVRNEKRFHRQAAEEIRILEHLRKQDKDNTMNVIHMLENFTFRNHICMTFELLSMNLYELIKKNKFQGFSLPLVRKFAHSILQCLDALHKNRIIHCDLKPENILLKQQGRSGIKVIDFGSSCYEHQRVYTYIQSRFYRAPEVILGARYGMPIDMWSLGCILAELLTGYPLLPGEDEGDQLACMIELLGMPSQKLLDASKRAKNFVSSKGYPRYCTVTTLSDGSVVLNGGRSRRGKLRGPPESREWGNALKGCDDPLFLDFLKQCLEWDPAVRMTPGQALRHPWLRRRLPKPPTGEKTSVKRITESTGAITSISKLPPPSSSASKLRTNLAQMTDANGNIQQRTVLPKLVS
UniProt P29317, whole entry: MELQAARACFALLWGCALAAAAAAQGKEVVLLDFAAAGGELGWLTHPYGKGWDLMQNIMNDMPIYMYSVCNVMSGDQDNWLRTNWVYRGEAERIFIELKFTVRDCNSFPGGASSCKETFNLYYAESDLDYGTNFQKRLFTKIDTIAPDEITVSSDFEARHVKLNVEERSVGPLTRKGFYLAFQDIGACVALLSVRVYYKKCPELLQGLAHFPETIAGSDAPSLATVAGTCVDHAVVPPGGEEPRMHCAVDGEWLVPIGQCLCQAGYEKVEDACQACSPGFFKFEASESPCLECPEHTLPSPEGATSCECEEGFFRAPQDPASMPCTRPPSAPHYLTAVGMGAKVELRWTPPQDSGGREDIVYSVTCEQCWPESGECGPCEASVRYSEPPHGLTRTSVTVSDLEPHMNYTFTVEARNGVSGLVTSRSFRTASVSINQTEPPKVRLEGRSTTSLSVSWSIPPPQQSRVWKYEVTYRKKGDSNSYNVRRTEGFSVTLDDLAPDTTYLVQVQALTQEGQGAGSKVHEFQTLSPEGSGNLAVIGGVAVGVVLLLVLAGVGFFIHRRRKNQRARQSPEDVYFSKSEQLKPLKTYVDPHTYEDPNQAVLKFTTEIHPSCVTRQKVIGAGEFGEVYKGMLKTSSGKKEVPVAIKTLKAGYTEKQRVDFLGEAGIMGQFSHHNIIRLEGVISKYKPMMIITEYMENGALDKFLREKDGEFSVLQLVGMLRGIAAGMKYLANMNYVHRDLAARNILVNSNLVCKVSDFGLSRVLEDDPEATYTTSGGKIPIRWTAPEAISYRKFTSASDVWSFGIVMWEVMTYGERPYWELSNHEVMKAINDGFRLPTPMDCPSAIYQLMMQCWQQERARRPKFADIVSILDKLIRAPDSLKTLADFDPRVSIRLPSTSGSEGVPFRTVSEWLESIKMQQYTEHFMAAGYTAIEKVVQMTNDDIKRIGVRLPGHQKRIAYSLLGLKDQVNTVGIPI
UniProt O75460: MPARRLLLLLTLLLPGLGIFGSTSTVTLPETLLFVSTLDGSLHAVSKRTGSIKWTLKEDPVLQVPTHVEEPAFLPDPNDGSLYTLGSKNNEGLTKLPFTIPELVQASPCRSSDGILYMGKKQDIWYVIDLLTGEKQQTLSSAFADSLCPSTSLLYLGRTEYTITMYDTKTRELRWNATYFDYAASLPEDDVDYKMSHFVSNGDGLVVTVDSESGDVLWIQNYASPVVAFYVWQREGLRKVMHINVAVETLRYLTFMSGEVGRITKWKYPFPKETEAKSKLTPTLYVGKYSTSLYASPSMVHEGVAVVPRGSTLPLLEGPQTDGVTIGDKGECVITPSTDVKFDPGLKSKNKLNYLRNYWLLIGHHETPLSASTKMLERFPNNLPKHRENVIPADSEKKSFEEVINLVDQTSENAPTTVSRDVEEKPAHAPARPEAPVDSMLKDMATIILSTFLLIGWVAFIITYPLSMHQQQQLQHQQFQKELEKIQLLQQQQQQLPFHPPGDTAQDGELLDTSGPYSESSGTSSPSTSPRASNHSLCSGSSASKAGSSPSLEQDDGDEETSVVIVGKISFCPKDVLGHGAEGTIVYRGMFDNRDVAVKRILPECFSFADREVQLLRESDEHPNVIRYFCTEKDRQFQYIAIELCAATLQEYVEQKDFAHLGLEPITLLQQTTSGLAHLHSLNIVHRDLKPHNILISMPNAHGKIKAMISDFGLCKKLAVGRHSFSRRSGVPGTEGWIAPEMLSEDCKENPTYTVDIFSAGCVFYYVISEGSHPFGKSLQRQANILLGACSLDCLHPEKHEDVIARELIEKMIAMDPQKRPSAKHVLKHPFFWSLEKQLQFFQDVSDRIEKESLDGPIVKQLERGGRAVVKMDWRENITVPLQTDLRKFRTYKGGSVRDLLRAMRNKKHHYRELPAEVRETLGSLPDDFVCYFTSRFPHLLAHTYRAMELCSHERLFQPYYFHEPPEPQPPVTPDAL
UniProt P11362, whole entry, looked up: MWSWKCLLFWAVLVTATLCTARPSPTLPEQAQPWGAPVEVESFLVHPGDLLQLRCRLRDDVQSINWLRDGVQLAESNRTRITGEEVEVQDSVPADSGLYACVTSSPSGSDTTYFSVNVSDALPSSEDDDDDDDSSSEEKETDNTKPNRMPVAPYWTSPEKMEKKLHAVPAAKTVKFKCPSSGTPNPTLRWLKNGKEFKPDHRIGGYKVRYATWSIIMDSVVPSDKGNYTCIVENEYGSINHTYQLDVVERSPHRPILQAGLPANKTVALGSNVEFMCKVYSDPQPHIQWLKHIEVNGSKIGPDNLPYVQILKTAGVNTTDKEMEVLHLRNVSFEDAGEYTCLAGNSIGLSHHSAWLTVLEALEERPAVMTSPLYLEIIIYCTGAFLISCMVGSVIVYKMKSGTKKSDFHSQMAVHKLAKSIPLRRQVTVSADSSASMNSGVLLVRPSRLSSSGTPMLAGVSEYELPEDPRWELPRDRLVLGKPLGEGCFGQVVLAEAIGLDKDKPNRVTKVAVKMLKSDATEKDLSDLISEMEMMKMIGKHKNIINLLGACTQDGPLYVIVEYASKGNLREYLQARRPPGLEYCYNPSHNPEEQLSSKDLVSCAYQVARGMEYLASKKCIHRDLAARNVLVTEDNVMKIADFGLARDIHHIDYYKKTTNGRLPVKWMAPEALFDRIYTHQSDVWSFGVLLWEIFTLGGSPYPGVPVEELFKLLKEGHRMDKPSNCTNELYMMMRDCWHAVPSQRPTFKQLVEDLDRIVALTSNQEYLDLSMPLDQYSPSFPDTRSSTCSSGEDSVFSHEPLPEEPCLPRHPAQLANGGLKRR
UniProt P22607, whole entry, looked up: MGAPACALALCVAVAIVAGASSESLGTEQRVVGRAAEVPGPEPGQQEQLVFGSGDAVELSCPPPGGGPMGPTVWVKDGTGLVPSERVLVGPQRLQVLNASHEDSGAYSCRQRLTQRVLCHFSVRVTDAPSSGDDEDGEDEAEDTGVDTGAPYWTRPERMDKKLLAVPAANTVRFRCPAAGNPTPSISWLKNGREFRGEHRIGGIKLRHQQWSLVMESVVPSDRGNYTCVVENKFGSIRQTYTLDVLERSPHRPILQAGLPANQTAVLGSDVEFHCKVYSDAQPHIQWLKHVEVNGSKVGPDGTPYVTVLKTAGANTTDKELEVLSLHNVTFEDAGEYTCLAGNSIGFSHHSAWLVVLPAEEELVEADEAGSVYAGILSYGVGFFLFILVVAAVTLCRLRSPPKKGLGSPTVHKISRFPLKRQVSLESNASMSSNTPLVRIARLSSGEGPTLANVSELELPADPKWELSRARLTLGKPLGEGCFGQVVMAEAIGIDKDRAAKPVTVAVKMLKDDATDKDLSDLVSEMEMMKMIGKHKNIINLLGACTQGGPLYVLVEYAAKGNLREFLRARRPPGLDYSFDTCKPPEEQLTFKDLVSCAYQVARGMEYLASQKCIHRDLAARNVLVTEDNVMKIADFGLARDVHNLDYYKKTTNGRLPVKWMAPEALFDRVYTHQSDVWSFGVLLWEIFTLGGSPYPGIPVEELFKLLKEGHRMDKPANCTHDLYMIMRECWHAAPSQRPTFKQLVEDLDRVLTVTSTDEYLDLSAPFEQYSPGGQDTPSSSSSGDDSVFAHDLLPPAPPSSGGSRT

Legend:
Assay in all cases: number of time points (of 5) at which kinase-Nluc abundance scored as decreased, DMSO-normalised (count); higher = more persistent destabilization
Conditions in all cases: K562; 2-18 h
[1] = molecular target: CSNK1A1 (UniProt P48729)
[2] = molecular target: CSNK1D (UniProt P48730)
[3] = molecular target: DDR1 (UniProt Q08345)
[4] = molecular target: DYRK1B (UniProt Q9Y463)
[5] = molecular target: DYRK2 (UniProt Q92630)
[6] = molecular target: EGFR (UniProt P00533)
[7] = molecular target: EGFR_G719S (UniProt P00533)
[8] = molecular target: EGFR_G719S_T790M (UniProt P00533)
[9] = molecular target: EGFR_L718V (UniProt P00533)
[10] = molecular target: EGFR_L858R (UniProt P00533)
[11] = molecular target: EGFR_L861Q (UniProt P00533)
[12] = molecular target: EGFR_T790M (UniProt P00533)
[13] = molecular target: EPHA2 (UniProt P29317)
[14] = molecular target: ERBB3 (UniProt P21860)
[15] = molecular target: ERBB4_R711C (clone: ERBB4_mut) (UniProt Q15303)
[16] = molecular target: ERN1 (UniProt O75460)
[17] = molecular target: FGFR1 (UniProt P11362)
[18] = molecular target: FGFR2 (UniProt P21802)
[19] = molecular target: FGFR3 (UniProt P22607)
[20] = molecular target: FGR (UniProt P09769)

Measured: number of time points

CC1(C)Cc2c(sc(NC(=S)NC(=O)c3ccccc3)c2C(=O)O)CO1 (10 µM)
0: [1] | [2] | [3] | [4] | [5] | [6] | [7] | [8] | [9] | [10] | [11] | [12] | [13] | [14] | [15] | [16] | [17] | [18] | [19] | [20]

C=C[C@@](C)(/C=C/c1ccc(O)cc1)CCC=C(C)C [Bakuchiol] (10 µM)
0: [1] | [2] | [3] | [4] | [5] | [6] | [7] | [8] | [9] | [10] | [11] | [12] | [13] | [14] | [15] | [16] | [17] | [18] | [19] | [20]

C#Cc1cccc(Nc2ncnc3cc(OC)c(OCCCCCCC(=O)NO)cc23)c1 (2.5 µM)
0: [1] | [2] | [3] | [4] | [5] | [6] | [7] | [8] | [9] | [10] | [11] | [12] | [13] | [14] | [15] | [16] | [17] | [18] | [19] | [20]

O=[N+]([O-])c1ccc(Nc2nc(N3CCOCC3)nc(N3CCOCC3)n2)cc1 (10 µM)
0: [1] | [2] | [3] | [4] | [5] | [6] | [7] | [8] | [9] | [10] | [11] | [12] | [13] | [14] | [15] | [16] | [17] | [18] | [19] | [20]

C=CCc1ccc(O)c(-c2ccc(O)c(CC=C)c2)c1 [Honokiol] (10 µM)
0: [1] | [2] | [3] | [4] | [5] | [6] | [7] | [8] | [9] | [10] | [11] | [12] | [13] | [14] | [15] | [16] | [17] | [18] | [19] | [20]

COc1ccccc1C(=O)/C=C/c1ccccc1C(=O)O (10 µM)
0: [1] | [2] | [3] | [4] | [5] | [6] | [7] | [8] | [9] | [10] | [11] | [12] | [13] | [14] | [15] | [16] | [17] | [18] | [19] | [20]

CCc1cccc(CC)c1NC(=O)N1Cc2[nH]nc(NC(=O)c3ccc(N4CCN(C)CC4)cc3)c2C1 (2.5 µM)
2: [8] | [9] | [10] | [11] | [17]
0: [1] | [19] | [20]
3: [5] | [7] | [14] | [15] | [18]
4: [3]
1: [2] | [4] | [6] | [12] | [13] | [16]

NC(=O)N1CCC(CC(=O)N2CCC([C@H]3c4ncc(Br)cc4CCc4cc(Cl)cc(Br)c43)CC2)CC1 [Lonafarnib] (2.5 µM)
0: [1] | [2] | [3] | [4] | [5] | [6] | [7] | [8] | [9] | [10] | [11] | [12] | [13] | [14] | [15] | [16] | [17] | [18] | [19] | [20]

CC(C)(C)n1nc(Cc2ccccc2O)c2c(N)ncnc21 (10 µM)
0: [1] | [2] | [3] | [4] | [5] | [6] | [7] | [8] | [9] | [10] | [11] | [12] | [13] | [14] | [15] | [16] | [17] | [18] | [19] | [20]

Cc1ccc2c(Nc3cccc(Cl)c3F)nccc2c1NC(=O)c1csc2c(N)ncnc12 [Belvarafenib] (10 µM)
0: [1] | [2] | [3] | [4] | [5] | [6] | [7] | [8] | [9] | [10] | [11] | [12] | [13] | [14] | [15] | [16] | [17] | [18] | [19] | [20]

O=C(O)c1cc(N(Cc2ccccc2O)Cc2ccccc2O)ccc1O [Lavendustin B] (10 µM)
0: [1] | [2] | [3] | [4] | [5] | [6] | [7] | [8] | [9] | [10] | [11] | [12] | [13] | [14] | [15] | [16] | [17] | [18] | [19] | [20]

CC(C)S(=O)(=O)c1ccc2nccc(Nc3ccc4scnc4c3)c2c1 (10 µM)
2: [5] | [14] | [18]
0: [1] | [2] | [4] | [6] | [7] | [8] | [9] | [10] | [11] | [12] | [13] | [15] | [16] | [17] | [19] | [20]
1: [3]

Cc1ccc(C(=O)Nc2sc(Nc3ccccc3)nc2C(N)=O)cc1 (10 µM)
0: [1] | [2] | [3] | [4] | [5] | [6] | [7] | [8] | [9] | [10] | [11] | [12] | [13] | [14] | [15] | [16] | [17] | [18] | [19] | [20]

COCCNc1cc(NC(=O)N2CCCc3cc(CN4CCN(C)CC4=O)c(C=O)nc32)ncc1C#N [Roblitinib] (10 µM)
0: [1] | [2] | [3] | [4] | [5] | [6] | [7] | [8] | [9] | [10] | [11] | [12] | [13] | [14] | [15] | [16] | [17] | [18] | [19] | [20]

CC/C(=N\NC(=O)c1ccnc(NCCCN2CCOCC2)c1)c1ccc(Cl)cc1O (2.5 µM)
0: [1] | [2] | [3] | [4] | [5] | [6] | [7] | [8] | [9] | [10] | [11] | [12] | [13] | [14] | [15] | [16] | [17] | [18] | [19] | [20]

O=C(N[C@@H](C1CC1)C(F)(F)F)c1cc(-c2cnn3cc(-c4ccc(F)cc4)cnc23)cs1 (10 µM)
0: [1] | [2] | [3] | [4] | [5] | [6] | [7] | [8] | [9] | [10] | [11] | [12] | [13] | [14] | [15] | [16] | [17] | [18] | [19] | [20]

CC(C)N1CCN(c2ccc(Nc3ncc4cc5n(c4n3)C3(CCCCC3)CNC5=O)nc2)CC1 [Lerociclib (dihydrochloride)] (2 µM)
0: [1] | [2] | [4] | [6] | [7] | [8] | [9] | [10] | [11] | [12] | [13] | [14] | [17] | [19] | [20]
2: [3] | [5] | [16]
3: [18]
4: [15]

Cc1cc2sc(NC(=O)Cc3ccccc3)nc2cc1Cl (10 µM)
0: [1] | [2] | [3] | [4] | [5] | [6] | [7] | [8] | [9] | [10] | [11] | [12] | [13] | [14] | [15] | [16] | [17] | [18] | [19] | [20]

C=CC(=O)Nc1cccc(-c2cccc3cnc(Nc4ccc(N5CCN(CCO)CC5)c(F)c4F)nc23)c1 [Olafertinib] (2.5 µM)
2: [5]
0: [1] | [2] | [3] | [4] | [6] | [7] | [8] | [9] | [10] | [11] | [12] | [13] | [14] | [15] | [16] | [17] | [18] | [19] | [20]

COc1cc2ncnc(Nc3ccc(F)c(Cl)c3)c2cc1NC(=O)/C=C/CN1CCCCC1 [Dacomitinib] (10 µM)
0: [1] | [2] | [3] | [4] | [5] | [6] | [7] | [8] | [9] | [10] | [11] | [12] | [13] | [14] | [15] | [16] | [17] | [18] | [19] | [20]

COc1ccc(-c2coc3cc(O)ccc3c2=O)cc1 [Formononetin] (10 µM)
0: [1] | [2] | [3] | [4] | [5] | [6] | [7] | [8] | [9] | [10] | [11] | [12] | [13] | [14] | [15] | [16] | [17] | [18] | [19] | [20]

CN(C)S(=O)(=O)c1ccc2c(c1)/C(=C/c1cc3c([nH]1)CCCC3)C(=O)N2 (2.5 µM)
0: [1] | [2] | [4] | [5] | [6] | [7] | [8] | [9] | [10] | [11] | [12] | [13] | [14] | [15] | [16] | [17] | [18] | [19] | [20]
5: [3]

Already shown: 2 of the compounds above.
O=C(N[C@@H](C1CC1)C(F)(F)F)c1cc(-c2cnn3cc(-c4ccc(F)cc4)cnc23)cs1 (10 µM)
0: [1] | [2] | [3] | [4] | [5] | [6] | [7] | [8] | [9] | [10] | [11] | [12] | [13] | [14] | [15] | [16] | [17] | [18] | [19] | [20]

CC(C)N1CCN(c2ccc(Nc3ncc4cc5n(c4n3)C3(CCCCC3)CNC5=O)nc2)CC1 [Lerociclib (dihydrochloride)] (2 µM)
0: [1] | [2] | [4] | [6] | [7] | [8] | [9] | [10] | [11] | [12] | [13] | [14] | [17] | [19] | [20]
2: [3] | [5] | [16]
3: [18]
4: [15]

(cont.)

NC(=S)n1[nH]c(-c2ccc([N+](=O)[O-])cc2)c(N=Nc2cccc(Cl)c2)c1=O (2.5 µM)
0: [1] | [2] | [3] | [4] | [5] | [6] | [7] | [8] | [9] | [10] | [11] | [12] | [13] | [14] | [15] | [16] | [17] | [18] | [19] | [20]

CNc1nc(Nc2ccc(C(=O)N3CCOCC3)cc2OC)ncc1Cl (2.5 µM)
0: [1] | [2] | [3] | [4] | [5] | [6] | [7] | [8] | [9] | [10] | [11] | [12] | [13] | [14] | [15] | [16] | [17] | [18] | [19] | [20]

NC1=NCCN1CC(=O)O [Cyclocreatine] (10 µM)
0: [1] | [2] | [3] | [4] | [5] | [6] | [7] | [8] | [9] | [10] | [11] | [12] | [13] | [14] | [15] | [16] | [17] | [18] | [19] | [20]
